Data from the primary screen of doi:10.1371/journal.pone.0140310, rounded.

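Human melanoma cells were exposed to a pair of drugs for 72 h in 1,536-well plates and read by automated microscopy after fixing and staining. Each value is the cleaved-PARP-positive fraction of nuclei relative to DMSO-treated wells, in %, so that 100 equals the control and higher values mean more apoptosis. Concentrations were fixed for each drug; these are the higher of two levels. No replicate spread is given; individual values may be noisy. Basal and induced levels differ widely between cell lines.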
This is part of the screen, not chosen by result.

All values are for the listed drug together with selumetinib (0.075 µM): Cn1cnc2c(F)c(Nc3ccc(Br)cc3Cl)c(C(=O)NOCCO)cc21

For O=c1cc(-c2cccc3c2Sc2ccccc2S3)oc(N2CCOCC2)c1 at 5 µM the values were A2058: 70.7; MEL-HO: 113; WM451Lu: 573; COLO 792: 47.3; COLO 800: 101; WM3619: 167; RVH-421: 38.0; UACC-62: 245.
For COc1ccc(-c2ccc3c(N4CCOCC4)nc(N4C[C@@H](C)O[C@@H](C)C4)nc3n2)cc1CO at 0.1 µM the values were A2058: 50.7; MEL-HO: 141; WM451Lu: 391; COLO 792: 147; COLO 800: 64.0; WM3619: 129; RVH-421: 89.4; UACC-62: 208.
For C[C@]1(O)C[C@@H](c2nc(-c3ccc4ccc(-c5ccccc5)nc4c3)c3c(N)nccn32)C1 at 2 µM the values were A2058: 178; MEL-HO: 54.6; WM451Lu: 107; COLO 792: 127; COLO 800: 165; WM3619: 144; RVH-421: 165; UACC-62: 234.
For O=C(O)c1ccc2c(c1)nc(Nc1cccc(Cl)c1)c1ccncc12 at 2 µM the values were A2058: 127; MEL-HO: 92.5; WM451Lu: 246; COLO 792: 257; COLO 800: 117; WM3619: 271; RVH-421: 192; UACC-62: 221.
For NC(=O)c1ccc(N(C(N)=O)c2c(F)cccc2F)nc1-c1ccc(F)cc1F at 2 µM the values were A2058: 79.4; MEL-HO: 437; WM451Lu: 94.1; COLO 792: 193; COLO 800: 159; WM3619: 126; RVH-421: 133; UACC-62: 287.
For O=C(CCCCCCC(=O)Nc1ccccc1)NO at 0.4 µM the values were A2058: 102; MEL-HO: 82.8; WM451Lu: 144; COLO 792: 330; COLO 800: 130; WM3619: 189; RVH-421: 92.8; UACC-62: 238.
For CN(C)S(=O)(=O)c1ccc2c(c1)/C(=C/c1cc3c([nH]1)CCCC3)C(=O)N2 at 2 µM the values were A2058: 135; MEL-HO: 89.4; WM451Lu: 139; COLO 792: 158; COLO 800: 152; WM3619: 132; RVH-421: 61.2; UACC-62: 178.
For COc1cc(Nc2ncc(F)c(Nc3ccc4c(n3)NC(=O)C(C)(C)O4)n2)cc(OC)c1OC at 2 µM the values were A2058: 244; MEL-HO: 407; WM451Lu: 251; COLO 792: 401; COLO 800: 142; WM3619: 105; RVH-421: 115; UACC-62: 237.
For CC(C)(C)c1cnc(CSc2cnc(NC(=O)C3CCNCC3)s2)o1 at 0.05 µM the values were A2058: 189; MEL-HO: 90.5; WM451Lu: 400; COLO 792: 53.9; COLO 800: 123; WM3619: 208; RVH-421: 70.3; UACC-62: 207.
For COc1ccc2c(c1)CCC1C2CCC2(C)C(NCCCCCCN3C(=O)C=CC3=O)CCC12 (configuration not stated) at 2 µM the values were A2058: 87.8; MEL-HO: 177; WM451Lu: 405; COLO 792: 142; COLO 800: 278; WM3619: 268; RVH-421: 79.2; UACC-62: 591.
For Oc1nc(-c2ccc(C(F)(F)F)cc2)nc2c1CSCC2 at 10 µM the values were A2058: 136; MEL-HO: 118; WM451Lu: 298; COLO 792: 109; COLO 800: 89.3; WM3619: 141; RVH-421: 99.5; UACC-62: 579.
For C#Cc1cccc(Nc2ncnc3cc(OCCOC)c(OCCOC)cc23)c1 at 4 µM the values were A2058: 159; MEL-HO: 110; WM451Lu: 134; COLO 792: 403; COLO 800: 25.6; WM3619: 168; RVH-421: 135; UACC-62: 400.
For CCCS(=O)(=O)Nc1ccc(F)c(C(=O)c2c[nH]c3ncc(Cl)cc23)c1F at 0.4 µM the values were A2058: 138; MEL-HO: 58.4; WM451Lu: 80.5; COLO 792: 116; COLO 800: 42.5; WM3619: 118; RVH-421: 82.8; UACC-62: 216.
For CCCCCCCCCCCC1=C(O)C(=O)C=C(O)C1=O at 6 µM the values were A2058: 86.4; MEL-HO: 355; WM451Lu: 373; COLO 792: 48.9; COLO 800: 107; WM3619: 153; RVH-421: 95.3; UACC-62: 394.
For Cc1cc(Nc2cc(N3CCN(C)CC3)nc(Sc3ccc(NC(=O)C4CC4)cc3)n2)n[nH]1 at 0.03 µM the values were A2058: 147; MEL-HO: 99.0; WM451Lu: 115; COLO 792: 204; COLO 800: 237; WM3619: 156; RVH-421: 188; UACC-62: 222.
For Nc1ccn([C@@H]2O[C@H](CO)[C@@H](O)C2(F)F)c(=O)n1 at 0.002 µM the values were A2058: 110; MEL-HO: 327; WM451Lu: 302; COLO 792: 196; COLO 800: 508; WM3619: 205; RVH-421: 230; UACC-62: 303.
For COc1cc2ncnc(Nc3ccc(Oc4ccccc4)cc3)c2cc1OC at 10 µM the values were A2058: 169; MEL-HO: 102; WM451Lu: 429; COLO 792: 288; COLO 800: 67.5; WM3619: 118; RVH-421: 54.0; UACC-62: 543.
For O=C(O)C(=O)Nc1sc2c(c1C(=O)O)CCNC2 at 8.33 µM the values were A2058: 69.3; MEL-HO: 117; WM451Lu: 486; COLO 792: 78.9; COLO 800: 72.1; WM3619: 152; RVH-421: 118; UACC-62: 199.
For c1cc(-c2cnn3cc(-c4ccc(OCCN5CCCCC5)cc4)cnc23)ccn1 at 2 µM the values were A2058: 97.0; MEL-HO: 34.7; WM451Lu: 395; COLO 792: 91.1; COLO 800: 89.5; WM3619: 82.8; RVH-421: 56.8; UACC-62: 171.
For CCc1ccc(CCOc2ccc(CC3SC(=O)NC3=O)cc2)nc1 (configuration not stated) at 10 µM the values were A2058: 127; MEL-HO: 101; WM451Lu: 331; COLO 792: 107; COLO 800: 79.5; WM3619: 122; RVH-421: 279; UACC-62: 294.
For COc1ccc(COc2ccc(Cc3cnc(N)nc3N)cc2OC)cc1 at 5 µM the values were A2058: 122; MEL-HO: 345; WM451Lu: 541; COLO 792: 94.4; COLO 800: 103; WM3619: 107; RVH-421: 151; UACC-62: 223.
For O=C(Nc1cccc(Cl)c1)Nc1ncc(CCNc2ncnc3ccsc23)s1 at 0.004 µM the values were A2058: 197; MEL-HO: 237; WM451Lu: 369; COLO 792: 293; COLO 800: 314; WM3619: 129; RVH-421: 277; UACC-62: 159.
For CCN(CC)CCNC(=O)c1c(C)[nH]c(/C=C2\C(=O)Nc3ccc(F)cc32)c1C at 2 µM the values were A2058: 299; MEL-HO: 34.2; WM451Lu: 181; COLO 792: 296; COLO 800: 46.5; WM3619: 145; RVH-421: 77.6; UACC-62: 133.
For Cc1nc(Nc2ncc(C(=O)Nc3c(C)cccc3Cl)s2)cc(N2CCN(CCO)CC2)n1 at 0.02 µM the values were A2058: 215; MEL-HO: 116; WM451Lu: 234; COLO 792: 420; COLO 800: 78.7; WM3619: 129; RVH-421: 60.8; UACC-62: 383.
For CN(c1ncccc1CNc1nc(Nc2ccc3c(c2)CC(=O)N3)ncc1C(F)(F)F)S(C)(=O)=O at 0.4 µM the values were A2058: 162; MEL-HO: 30.0; WM451Lu: 235; COLO 792: 147; COLO 800: 134; WM3619: 118; RVH-421: 74.3; UACC-62: 534.
For Cn1nnc2c(C(N)=O)ncn2c1=O at 10 µM the values were A2058: 332; MEL-HO: 79.2; WM451Lu: 253; COLO 792: 103; COLO 800: 81.8; WM3619: 135; RVH-421: 148; UACC-62: 286.
For COCC[n+]1c2c(n(Cc3cnccn3)c1C)C(=O)c1ccccc1C2=O at 0.002 µM the values were A2058: 574; MEL-HO: 46.9; WM451Lu: 784; COLO 792: 246; COLO 800: 90.5; WM3619: 152; RVH-421: 208; UACC-62: 287.
For OCc1c[nH]c2ccccc12 at 4 µM the values were A2058: 143; MEL-HO: 193; WM451Lu: 407; COLO 792: 114; COLO 800: 162; WM3619: 185; RVH-421: 160; UACC-62: 227.
For CC(=O)c1c(C)c2cnc(Nc3ccc(N4CCNCC4)cn3)nc2n(C2CCCC2)c1=O at 0.2 µM the values were A2058: 102; MEL-HO: 112; WM451Lu: 166; COLO 792: 343; COLO 800: 95.3; WM3619: 161; RVH-421: 66.5; UACC-62: 419.
For CNC(=O)c1cc(Oc2ccc(NC(=O)Nc3ccc(Cl)c(C(F)(F)F)c3)cc2)ccn1 at 2 µM the values were A2058: 108; MEL-HO: 131; WM451Lu: 125; COLO 792: 59.3; COLO 800: 42.7; WM3619: 139; RVH-421: 87.0; UACC-62: 398.
For Cn1cc(/C=C2\C(=O)Nc3cccnc32)c2ccccc21 at 2 µM the values were A2058: 114; MEL-HO: 99.3; WM451Lu: 250; COLO 792: 153; COLO 800: 91.4; WM3619: 135; RVH-421: 54.9; UACC-62: 374.
For Cc1cc(SCc2sc(-c3ccc(C(F)(F)F)c(F)c3)nc2C)ccc1OCC(=O)O at 10 µM the values were A2058: 124; MEL-HO: 90.4; WM451Lu: 557; COLO 792: 71.1; COLO 800: 46.7; WM3619: 121; RVH-421: 145; UACC-62: 319.
For N#Cc1c(O)c2c(-c3ccc(-c4ccccc4O)cc3)csc2[nH]c1=O at 10 µM the values were A2058: 143; MEL-HO: 91.5; WM451Lu: 239; COLO 792: 165; COLO 800: 50.1; WM3619: 169; RVH-421: 207; UACC-62: 166.
For N.N.[Cl][Pt][Cl] at 8 µM the values were A2058: 108; MEL-HO: 29.5; WM451Lu: 113; COLO 792: 117; COLO 800: 118; WM3619: 146; RVH-421: 79.7; UACC-62: 205.
For COc1cc([C@@H]2c3cc4c(cc3[C@@H](O[C@@H]3O[C@@H]5CO[C@@H](C)O[C@H]5[C@H](O)[C@H]3O)[C@H]3COC(=O)[C@H]23)OCO4)cc(OC)c1O at 0.1 µM the values were A2058: 158; MEL-HO: 134; WM451Lu: 75.5; COLO 792: 242; COLO 800: 30.9; WM3619: 137; RVH-421: 148; UACC-62: 287.
For C[C@@H]1CCN(C(=O)CC#N)C[C@@H]1N(C)c1ncnc2[nH]ccc12 at 5 µM the values were A2058: 172; MEL-HO: 138; WM451Lu: 35.5; COLO 792: 156; COLO 800: 40.4; WM3619: 134; RVH-421: 60.2; UACC-62: 193.
For Cc1ccc(NC(=O)c2cccc(N(C)C)c2)cc1NC(=O)c1ccc(O)cc1 at 10 µM the values were A2058: 159; MEL-HO: 155; WM451Lu: 328; COLO 792: 75.7; COLO 800: 89.7; WM3619: 91.7; RVH-421: 80.8; UACC-62: 260.
For COC(=O)c1sccc1S(=O)(=O)Nc1ccc(Nc2ccccc2)cc1OC at 5 µM the values were A2058: 129; MEL-HO: 130; WM451Lu: 285; COLO 792: 115; COLO 800: 121; WM3619: 254; RVH-421: 287; UACC-62: 350.

For reference, 3 entries once more:

Second drug,A2058,MEL-HO,WM451Lu,COLO 792,COLO 800,WM3619,RVH-421,UACC-62
C#Cc1cccc(Nc2ncnc3cc(OCCOC)c(OCCOC)cc23)c1 at 4 µM,159,110,134,403,25.6,168,135,400
COc1ccc2c(c1)CCC1C2CCC2(C)C(NCCCCCCN3C(=O)C=CC3=O)CCC12 (configuration not stated) at 2 µM,87.8,177,405,142,278,268,79.2,591
O=C(O)c1ccc2c(c1)nc(Nc1cccc(Cl)c1)c1ccncc12 at 2 µM,127,92.5,246,257,117,271,192,221